Measurements: patent publication US4883797A, “Derivatives of piperazine, method for making the same” (Ferrer Internacional, S.A., priority 1982, dated 1989)

Tests used:
Format in all cases: in vivo
mice = assay: Antiarrhythmic activity, method of Ferrini et al, endovenous administration to mice; conditions: Mus musculus, iv, read-out: Antiarrythmic activity ED50
heart rate = assay: Effect on heart rate (bradycardia), anesthetized rats, endovenous; conditions: Rattus norvegicus, iv
mean arterial pressure = assay: Decrease in mean arterial pressure (hypotension), anesthetized rats, endovenous; conditions: Rattus norvegicus, iv

## C(=C\c1ccccc1)/CN1CCN(C(c2ccccc2)c2ccccc2)CC1 [Cinnarizine 2HCI, reference compound]
mice
  ED50: 23 mg/kg
Heart rate
  ED50: 2.8 mg/kg
Mean arterial pressure
  ED50: 1 mg/kg
